Test results reported in PMC12398132.
These are yes or no findings as the source states them, for the method shown.

Protein sequences, listed by entry. Tags and fused reporters are not part of them. Residues count along the entry.
UniProt P02649, residues 19-317: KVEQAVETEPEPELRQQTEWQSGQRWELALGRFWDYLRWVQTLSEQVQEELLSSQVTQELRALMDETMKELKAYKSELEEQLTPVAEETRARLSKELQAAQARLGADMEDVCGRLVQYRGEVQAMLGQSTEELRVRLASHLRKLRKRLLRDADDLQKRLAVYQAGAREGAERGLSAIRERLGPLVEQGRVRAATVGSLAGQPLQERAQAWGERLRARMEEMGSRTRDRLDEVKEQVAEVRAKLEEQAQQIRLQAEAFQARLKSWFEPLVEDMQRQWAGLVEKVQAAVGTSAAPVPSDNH

Biological target: T1, mammalian-derived and heparan-sulfated recombinant GPC4-WT (soluble, lacking a GPI-anchor) (human) (UniProt O75487)
T1 sequence (chain, heparan sulfate chains): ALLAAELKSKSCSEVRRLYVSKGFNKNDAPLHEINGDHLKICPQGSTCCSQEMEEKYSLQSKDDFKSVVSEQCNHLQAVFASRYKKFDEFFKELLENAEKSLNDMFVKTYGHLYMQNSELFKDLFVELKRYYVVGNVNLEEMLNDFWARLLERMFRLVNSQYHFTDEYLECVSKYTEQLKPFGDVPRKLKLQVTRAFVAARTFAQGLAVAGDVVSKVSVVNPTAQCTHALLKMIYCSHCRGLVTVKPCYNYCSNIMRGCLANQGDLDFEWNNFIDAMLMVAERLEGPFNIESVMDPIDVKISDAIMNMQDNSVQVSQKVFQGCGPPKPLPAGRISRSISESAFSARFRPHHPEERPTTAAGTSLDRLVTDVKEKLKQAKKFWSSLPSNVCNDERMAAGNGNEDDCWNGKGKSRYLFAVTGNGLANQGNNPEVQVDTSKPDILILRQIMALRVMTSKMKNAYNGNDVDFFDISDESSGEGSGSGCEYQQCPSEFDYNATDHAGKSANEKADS
Test: cross-linking; lysine crosslinking with disuccinimidyl sulfoxide (DSSO) of recombinant purified proteins in solution; both purified

human his-tagged full-length APOE3, mammalian-derived, lipidated (from UniProt P02649 19-317)
binding: no binding
